# Some of the results follow.
# Test system: Caenorhabditis elegans N2
# Assay: aldicarb interaction hit call (worm growth perturbed in combination with 10 uM aldicarb in both replicates, no effect as single agent) (binary (1 = interacts)); higher = interacts with aldicarb (growth perturbed)
# Conditions: first compound 1.5 µM; aldicarb concentration 10 µM; 6 days; 20 °C
row,Structure (SMILES),aldicarb interaction hit call
1,COc1cnn(-c2cccc(C(F)(F)F)c2)c(=O)c1Cl [wact-37] + CNC(=O)O/N=C/C(C)(C)SC [aldicarb],inactive: 0
2,CCOc1ccc(-c2cnc3ccccc3n2)cc1 [wact-24] + CNC(=O)O/N=C/C(C)(C)SC [aldicarb],inactive: 0
3,Nc1nc(SCc2ccccc2)ns1 [wact-597] + CNC(=O)O/N=C/C(C)(C)SC [aldicarb],inactive: 0
4,CCCN1CCC(C(=O)Nc2ccc(-c3cccc(C)c3)cc2)CC1 [wact-267] + CNC(=O)O/N=C/C(C)(C)SC [aldicarb],inactive: 0
5,Cl.Clc1c(OCCCn2ccnc2)ccc2ccccc12 [wact-148] + CNC(=O)O/N=C/C(C)(C)SC [aldicarb],inactive: 0
6,CCN1CCN(c2ccc(NC(=O)c3cc4ccccc4cc3OC)cc2Cl)CC1 [wact-535] + CNC(=O)O/N=C/C(C)(C)SC [aldicarb],inactive: 0
7,CC(C)(C)c1ccc(OCc2nc(-c3ccncc3)no2)cc1 [wact-441] + CNC(=O)O/N=C/C(C)(C)SC [aldicarb],inactive: 0
8,COc1ccc(OCC(O)CNc2ccc(Br)cc2)cc1 (stereo unspecified) [wact-627] + CNC(=O)O/N=C/C(C)(C)SC [aldicarb],inactive: 0
9,c1ccc(COc2ccc(-c3nc(-c4ccccn4)no3)cc2)cc1 [wact-153] + CNC(=O)O/N=C/C(C)(C)SC [aldicarb],active: 1
10,Cc1ccc(-c2n[nH]cc2CNCc2ccc(OC(F)(F)F)cc2)cc1C [wact-307] + CNC(=O)O/N=C/C(C)(C)SC [aldicarb],inactive: 0
11,Cc1ccc(Cl)cc1N/C=C/C(=O)c1ccccc1 [wact-43] + CNC(=O)O/N=C/C(C)(C)SC [aldicarb],inactive: 0
12,C#CCN1C(=O)/C(=N/NC(=O)c2ccccc2Cl)c2cc(Br)ccc21 [wact-356] + CNC(=O)O/N=C/C(C)(C)SC [aldicarb],inactive: 0
13,COc1ccc(NC(=O)c2ccccc2)cc1/N=C/c1ccc(C#Cc2ccccc2)cc1 [wact-377] + CNC(=O)O/N=C/C(C)(C)SC [aldicarb],inactive: 0
14,O=C(c1cccs1)N1CCN(c2ccc([N+](=O)[O-])cc2)CC1 [wact-364] + CNC(=O)O/N=C/C(C)(C)SC [aldicarb],inactive: 0
15,Cc1ccc(-n2cc(CNCCc3cscn3)c(-c3ccc(F)cc3)n2)cc1 [wact-301] + CNC(=O)O/N=C/C(C)(C)SC [aldicarb],inactive: 0
16,O=C(c1ccc(Cl)cc1)C1CCCN(Cc2ccccc2)C1 (stereo unspecified) [wact-328] + CNC(=O)O/N=C/C(C)(C)SC [aldicarb],inactive: 0
17,O=C(/C=C/c1ccc2c(c1)OCO2)Nc1ccc(Cl)cc1 [wact-411] + CNC(=O)O/N=C/C(C)(C)SC [aldicarb],inactive: 0
18,CCOc1ccc(NC(=O)c2cnsn2)cc1 [wact-630] + CNC(=O)O/N=C/C(C)(C)SC [aldicarb],inactive: 0
19,CCC(=O)c1ccc(OCc2ccc(F)cc2)cc1 [wact-542] + CNC(=O)O/N=C/C(C)(C)SC [aldicarb],inactive: 0
20,O=C(NCC1CCCCC1)c1ccccc1I [wact-552] + CNC(=O)O/N=C/C(C)(C)SC [aldicarb],inactive: 0
21,O=C(Oc1ccc(Br)cc1)c1cccs1 [wact-401] + CNC(=O)O/N=C/C(C)(C)SC [aldicarb],inactive: 0
22,Fc1ccc(N2CCN(Cc3cccc(Cl)c3Cl)CC2)cc1 [wact-28] + CNC(=O)O/N=C/C(C)(C)SC [aldicarb],inactive: 0
23,COc1cc(OC)cc(C(=O)N2CCC(C(=O)Nc3ccc(Cl)c(C(F)(F)F)c3)CC2)c1 [wact-491] + CNC(=O)O/N=C/C(C)(C)SC [aldicarb],inactive: 0
24,COc1c(Cl)cccc1NC(=O)c1cccc(Cl)c1 [wact-509] + CNC(=O)O/N=C/C(C)(C)SC [aldicarb],inactive: 0
25,COCCNC(=O)c1ccc(OC2CCN(C/C=C/c3ccc(F)cc3)CC2)c(Cl)c1 [wact-275] + CNC(=O)O/N=C/C(C)(C)SC [aldicarb],inactive: 0
26,O=C(NCc1ccc(Cl)cc1Cl)c1ccccc1F [wact-557] + CNC(=O)O/N=C/C(C)(C)SC [aldicarb],inactive: 0

# Looked up above.
# CC(C)(C)c1ccc(OCc2nc(-c3ccncc3)no2)cc1 [wact-441] + CNC(=O)O/N=C/C(C)(C)SC [aldicarb] | aldicarb interaction hit call: inactive: 0
# CCOc1ccc(-c2cnc3ccccc3n2)cc1 [wact-24] + CNC(=O)O/N=C/C(C)(C)SC [aldicarb] | aldicarb interaction hit call: inactive: 0
